Results: the supplement of paper PMC3682954
Counter-ions that a name gives are not always drawn. ± gives the standard deviation of the averaged measurements. This is one part of the list. Single values are uncertain, as repeats are few or missing.

Tested on: RAW 264.7
Assay: HMGB1-induced TNF-alpha production relative to HMGB1-stimulated control; higher = more TNF-alpha secretion (less inhibition)
Conditions: stimulus: HMGB1 5 ug/ml, 18 h
[1] = compound concentration: 1 ug/ml

Structure (SMILES) | HMGB1-induced TNF-alpha production [1] | HMGB1-induced TNF-alpha production (compound concentration: 3 uM)
O=C(/C=C/c1ccc(O)c(O)c1)O[C@H](Cc1ccc(O)c(O)c1)C(=O)O [Rosmarinic acid] | 62.4% | –
C1CCC(N=C(NC23CC4CC(CC(C4)C2)C3)N2CCOCC2)CC1 | – | 84.8%
COC(=O)[C@H](Cc1ccccc1)NC(=O)[C@@H](N)CC(=O)O | – | 86.6%
C[N+](C)(C)CC(O)CC(=O)[O-] (stereo unspecified) | – | 83.1%
NC(N)=N[C@@H](CCC(=O)O)C(=O)O [alpha-Guanidinoglutaric acid] | – | 80.1%
NC(Cc1cnc[nH]1)C(=O)O (racemic) [DL-Histidine hydrochloride, monohydrate] | 73.3% | –
CCCCOc1cc(C(=O)OCCN(CC)CC)ccc1N [Benoxinate hydrochloride] | – | 77.4%
Clc1ccc2nsnc2c1NC1=NCCN1 [Tizanidine hydrochloride] | – | 105%
Clc1ccc2nsnc2c1NC1=NCCN1 [Tizanidine] | – | 96.1%
Clc1ccc2nsnc2c1NC1=NCCN1 [Tizanidine HCl] | – | 113%
CC(=O)Nc1c(I)cc(I)c(C(=O)O)c1I | – | 79.4%
Cc1cc2cc3c(C)cc(=O)oc3c(C)c2o1 [Trioxsalen] | – | 92.9%
Cc1cc2cc3c(C)cc(=O)oc3c(C)c2o1 | – | 87.6%
CC(=O)Nc1nnc(S(N)(=O)=O)s1 [Acetazolamide] | – | 92.1 ± 2.7%
CC(=O)Nc1nnc(S(N)(=O)=O)s1 | – | 85.9%
CC(C)Oc1ccc2c(=O)c(-c3ccccc3)coc2c1 [Ipriflavone] | 82.9% | –
CC(C)Oc1ccc2c(=O)c(-c3ccccc3)coc2c1 | – | 90.1 ± 25%
O=C(O)CCC(C(=O)O)N1C(=O)c2ccccc2C1=O [L-Glutamic acid, N-phthaloyl-] | – | 93.7%
CC[C@H](C)[C@H](N)C(=O)O [L-Isoleucine] | 76.4% | –

As entered above.
CC[C@H](C)[C@H](N)C(=O)O [L-Isoleucine] – HMGB1-induced TNF-alpha production [1]: 76.4%
O=C(/C=C/c1ccc(O)c(O)c1)O[C@H](Cc1ccc(O)c(O)c1)C(=O)O [Rosmarinic acid] – HMGB1-induced TNF-alpha production [1]: 62.4%
Cc1cc2cc3c(C)cc(=O)oc3c(C)c2o1 [Trioxsalen] – HMGB1-induced TNF-alpha production (compound concentration: 3 uM): 92.9%
Clc1ccc2nsnc2c1NC1=NCCN1 [Tizanidine hydrochloride] – HMGB1-induced TNF-alpha production (compound concentration: 3 uM): 105%

Following part:

Structure (SMILES) | HMGB1-induced TNF-alpha production [1] | HMGB1-induced TNF-alpha production (compound concentration: 3 uM)
NC[C@@H]1O[C@H](C23CC4CC(CC(C4)C2)C3)Cc2c1ccc(O)c2O | – | 72.4%
CCOc1nc2cccc(C(=O)O)c2n1Cc1ccc(-c2ccccc2-c2nnn[nH]2)cc1 [Candesartan] | – | 117 ± 5%
C[C@@](Cc1ccc(O)c(O)c1)(NN)C(=O)O | – | 92.7%
C[C@@](Cc1ccc(O)c(O)c1)(NN)C(=O)O [Carbidopa] | – | 101 ± 14%
CC1CCN(CC[C@H]2CCCN2S(=O)(=O)c2cccc(O)c2)CC1 | – | 111%
Nc1ncnc2c1ncn2[C@@H]1O[C@H](CO)[C@@H](O)[C@@H]1O | – | 79.6%
Nc1ncnc2c1ncn2[C@@H]1O[C@H](CO)[C@@H](O)[C@@H]1O [Vidarabine] | – | 108 ± 9.4%
CC(=O)OC[C@H]1O[C@@H]([S-])[C@H](OC(C)=O)[C@@H](OC(C)=O)[C@@H]1OC(C)=O.CCP(CC)CC.[Au+] [Auranofin] | – | 0.987 ± 2%
COc1cc(OC)c2c(C)cc(=O)oc2c1 [5,7-Dimethoxy-4-methylcoumarin] | 56.4% | –
CC(C)(S)C(N)C(=O)O (single isomer, unassigned; (+)) [(+)-Penicillamine] | 77.3% | –
N#Cc1ccc2c(c1)N(CCCN1CCC(O)CC1)c1ccccc1S2 | – | 73.4%
CCC1(c2ccccc2)C(=O)NCNC1=O | – | 82.6%
CCC1(c2ccccc2)C(=O)NCNC1=O [Primidone] | – | 100 ± 12%
O=C(O)/C=C/C(O)c1ccc(Cl)cc1 (stereo unspecified) | – | 108%
COC(=O)C1=C(C)NC(C)=C(C(=O)OC(C)(C)CN(C)CCC(c2ccccc2)c2ccccc2)C1c1cccc([N+](=O)[O-])c1 (stereo unspecified) [Lercanidipine hydrochloride hemihydrate] | – | 82.5%
C[C@]12CCC(=O)C=C1CC[C@@H]1[C@@H]2CC[C@@]2(C)[C@H]1CC[C@]2(O)C(=O)CO [Cortexolone] | – | 73.8%
CN(C)CCC(c1ccc(Br)cc1)c1ccccn1 (stereo unspecified) | – | 86.3%
CN(C)CCC(c1ccc(Br)cc1)c1ccccn1 (stereo unspecified) [Brompheniramine maleate] | – | 88.1%
NC[C@@H]1O[C@H](O[C@H]2[C@@H](O)[C@H](O[C@@H]3[C@@H](O)[C@H](N)C[C@H](N)[C@H]3O[C@H]3O[C@H](CO)[C@@H](O)C[C@H]3N)O[C@@H]2CO)[C@H](N)[C@@H](O)[C@@H]1O[C@H]1O[C@H](CO)[C@@H](O)[C@H](O)[C@@H]1O [Lividomycin A sulfate salt] | 81.5% | –

Structure (SMILES) | HMGB1-induced TNF-alpha production [1] | HMGB1-induced TNF-alpha production (compound concentration: 3 uM)
COc1ccccc1N1CCN(CCCNc2c(C)c(=O)n(C)c(=O)n2C)CC1 [Urapidil, 5-Methyl-] | – | 99.1%
O=C1CC[C@@H](C(=O)N2CSC[C@H]2C(=O)O)N1 | – | 88.6%
c1ccc(-c2ccc(C(c3ccccc3)n3ccnc3)cc2)cc1 (stereo unspecified) | – | 94.9 ± 3.8%
c1ccc(-c2ccc(C(c3ccccc3)n3ccnc3)cc2)cc1 (stereo unspecified) [Bifonazole] | – | 84.9 ± 21%
Oc1c(Cl)cc(Cl)c2cccnc12 | – | 127%
Oc1c(Cl)cc(Cl)c2cccnc12 [Chloroxine] | – | 97.4%
CC(C)NCC(O)COc1ccc(CC(N)=O)cc1 (stereo unspecified) [Atenolol] | – | 95.8%
CC(C)NCC(O)COc1ccc(CC(N)=O)cc1 (stereo unspecified) | – | 83.6%
CNCCc1cnc(CCC(c2ccccc2)c2ccccc2)[nH]1 [N-Methylhistaprodifen dioxalate salt] | – | 78.6%
NC(Cn1ccc(=O)c(O)c1)C(=O)O (stereo unspecified) | – | 103%
O=C1c2c(O)cc(O)cc2O[C@H](c2ccc(O)c(O)c2)[C@H]1O (racemic) [(±)-Taxifolin] | – | 103%
C=C1C(=O)O[C@@H]2C[C@@]3(C)CCCC(=C)[C@@H]3C[C@H]12 [Isoalantolactone] | 32.1% | –
CN1CCN(CC(=O)N2c3ccccc3C(=O)Nc3cccnc32)CC1 [Pirenzepine] | – | 100%
CN1CCN(CC(=O)N2c3ccccc3C(=O)Nc3cccnc32)CC1 [Pirenzepine dihydrochloride] | – | 80.6 ± 32%
CN1CCN(CC(=O)N2c3ccccc3C(=O)Nc3cccnc32)CC1 | – | 94.8%
CN(CCCCCCCCCCN(C)C(=O)Oc1cccc([N+](C)(C)C)c1)C(=O)Oc1cccc([N+](C)(C)C)c1 [Demecarium bromide] | – | 115%
COc1ccccc1-c1cc(=O)c2c(OC)cccc2o1 [2',5-Dimethoxyflavone] | 95% | –
CC(=O)N(CC(O)CO)c1c(I)c(C(=O)NCC(O)CO)c(I)c(C(=O)NCC(O)CO)c1I (stereo unspecified) [Iohexol] | – | 64.3%
